Our source for the binding result and Kd values is article PMC4538836.

Chains of the proteins cited; added tags and fusions are not shown. Chains listed by the source or under a name are the forms on record and can include a tag or linker.
DNA ligase I (Homo sapiens), one chain, as listed by the source: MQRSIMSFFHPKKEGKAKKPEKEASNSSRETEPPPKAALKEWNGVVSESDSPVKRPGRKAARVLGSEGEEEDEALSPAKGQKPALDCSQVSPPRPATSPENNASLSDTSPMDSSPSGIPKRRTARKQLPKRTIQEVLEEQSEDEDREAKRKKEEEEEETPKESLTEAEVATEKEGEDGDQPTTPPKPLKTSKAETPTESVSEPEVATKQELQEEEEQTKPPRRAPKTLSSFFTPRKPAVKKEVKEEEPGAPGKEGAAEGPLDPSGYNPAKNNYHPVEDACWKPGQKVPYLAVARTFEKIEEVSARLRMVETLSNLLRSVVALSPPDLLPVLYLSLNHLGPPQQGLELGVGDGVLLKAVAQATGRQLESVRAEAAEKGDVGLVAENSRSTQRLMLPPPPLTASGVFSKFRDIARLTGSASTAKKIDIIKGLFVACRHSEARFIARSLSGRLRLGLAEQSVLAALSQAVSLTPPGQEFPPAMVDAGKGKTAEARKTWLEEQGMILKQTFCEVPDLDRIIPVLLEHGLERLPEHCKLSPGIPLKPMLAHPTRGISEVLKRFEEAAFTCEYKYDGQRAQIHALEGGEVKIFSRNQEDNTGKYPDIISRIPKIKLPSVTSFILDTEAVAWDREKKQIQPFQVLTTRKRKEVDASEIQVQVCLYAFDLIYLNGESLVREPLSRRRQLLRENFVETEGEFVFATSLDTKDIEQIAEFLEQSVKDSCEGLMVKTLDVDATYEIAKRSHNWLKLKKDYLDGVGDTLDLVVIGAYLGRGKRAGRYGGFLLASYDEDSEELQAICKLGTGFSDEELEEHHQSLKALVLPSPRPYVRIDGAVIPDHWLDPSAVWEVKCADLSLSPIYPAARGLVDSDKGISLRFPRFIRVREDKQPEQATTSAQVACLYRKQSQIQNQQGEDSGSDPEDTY

pKd: −log10 of the molar value. For part of these data: Negatives hold for the conditions tested. For part of these data: Protein sequences can lack the tags named with them. For at least one entry, the source does not settle the construct or the ends of the probe. For part of these data: At least one verdict rests on a figure or table, not on a statement of the authors.

Data set [1] relates to T1, DNA ligase III beta (LigIII) (Homo sapiens).
T1 sequence (looked up): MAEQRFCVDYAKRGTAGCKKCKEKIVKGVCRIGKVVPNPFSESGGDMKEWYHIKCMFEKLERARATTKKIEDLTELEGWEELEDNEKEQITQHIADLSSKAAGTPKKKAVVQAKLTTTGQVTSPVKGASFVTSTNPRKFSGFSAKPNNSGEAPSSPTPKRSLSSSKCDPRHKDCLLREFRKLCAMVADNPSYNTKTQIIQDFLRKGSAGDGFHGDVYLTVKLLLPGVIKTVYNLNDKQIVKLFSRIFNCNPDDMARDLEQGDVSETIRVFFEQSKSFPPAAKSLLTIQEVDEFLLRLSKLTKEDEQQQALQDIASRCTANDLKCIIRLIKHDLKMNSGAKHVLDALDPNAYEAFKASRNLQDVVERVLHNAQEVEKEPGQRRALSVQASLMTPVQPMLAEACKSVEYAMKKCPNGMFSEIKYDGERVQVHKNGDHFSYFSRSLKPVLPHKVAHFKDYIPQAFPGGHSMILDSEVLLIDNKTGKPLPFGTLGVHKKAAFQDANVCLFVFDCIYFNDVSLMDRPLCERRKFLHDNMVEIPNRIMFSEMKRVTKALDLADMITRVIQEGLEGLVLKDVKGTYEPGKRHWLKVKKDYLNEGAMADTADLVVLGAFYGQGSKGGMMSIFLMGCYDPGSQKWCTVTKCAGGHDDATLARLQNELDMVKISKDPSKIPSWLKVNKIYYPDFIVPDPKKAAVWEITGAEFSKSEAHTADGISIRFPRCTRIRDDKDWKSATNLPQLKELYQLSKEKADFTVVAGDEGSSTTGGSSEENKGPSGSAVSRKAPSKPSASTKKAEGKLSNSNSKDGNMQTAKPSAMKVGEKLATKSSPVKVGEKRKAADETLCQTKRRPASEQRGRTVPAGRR
In words: pull-down. Conditions: 50 mM HEPES-NaOH pH 7.5, 80 mM NaCl, 5 mM MgCl2, 1 mM DTT, 1 mM ATP, 50 ug/ml BSA, anisotropy 25 C (25 nM DNA), TR-FRET room temperature, pull-down 4 C, recombinant protein, residues 1-862, protein details: N-terminal His (pQE32). (In general: In TR-FRET formats the signal depends on donor and acceptor labels being close together.)

Data set [2] concerns T2, ΔZnF LigIII (Homo sapiens).
T2 sequence (looked up): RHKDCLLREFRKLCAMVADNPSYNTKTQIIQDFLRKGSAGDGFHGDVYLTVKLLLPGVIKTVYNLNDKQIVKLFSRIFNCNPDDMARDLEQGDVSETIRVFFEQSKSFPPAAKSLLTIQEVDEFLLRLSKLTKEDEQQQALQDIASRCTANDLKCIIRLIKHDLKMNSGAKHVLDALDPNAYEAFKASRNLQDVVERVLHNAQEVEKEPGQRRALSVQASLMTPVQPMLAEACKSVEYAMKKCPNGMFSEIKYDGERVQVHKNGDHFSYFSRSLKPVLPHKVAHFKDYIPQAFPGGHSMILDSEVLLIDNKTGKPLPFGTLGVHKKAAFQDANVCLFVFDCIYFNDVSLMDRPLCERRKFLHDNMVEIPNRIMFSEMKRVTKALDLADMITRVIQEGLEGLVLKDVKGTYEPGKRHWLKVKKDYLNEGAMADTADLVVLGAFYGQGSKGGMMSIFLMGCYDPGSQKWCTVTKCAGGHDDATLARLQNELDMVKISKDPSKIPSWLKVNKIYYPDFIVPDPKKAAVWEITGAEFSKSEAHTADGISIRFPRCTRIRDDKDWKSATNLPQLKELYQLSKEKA
In words: pull-down. Conditions: bridging read-out only, binds single duplex; 50 mM HEPES-NaOH pH 7.5, 80 mM NaCl, 5 mM MgCl2, 1 mM DTT, 1 mM ATP, 50 ug/ml BSA; anisotropy 25 C (25 nM DNA), TR-FRET room temperature, pull-down 4 C; recombinant protein; residues 170-749; protein details: N-terminal His (pET28a).

Data set [3] concerns T3, LigIII, deadenylated (Homo sapiens).
T3 sequence (looked up): T1 sequence (looked up)
Kind of data set: TR-FRET. Particulars: end type not stated, 50 mM HEPES-NaOH pH 7.5, 80 mM NaCl, 5 mM MgCl2, 1 mM DTT, 1 mM ATP, 50 ug/ml BSA, anisotropy 25 C (25 nM DNA), TR-FRET room temperature, pull-down 4 C, recombinant protein, residues 1-862, protein details: N-terminal His (pQE32).

Data set [4] relates to T2, ΔZnF LigIII (Homo sapiens). Kind of data set: TR-FRET. Particulars: bridging read-out only, end type not stated; 50 mM HEPES-NaOH pH 7.5, 80 mM NaCl, 5 mM MgCl2, 1 mM DTT, 1 mM ATP, 50 ug/ml BSA; anisotropy 25 C (25 nM DNA), TR-FRET room temperature, pull-down 4 C; recombinant protein; residues 170-749; protein details: N-terminal His (pET28a).
The subject of data set [5] is DNA ligase I (Homo sapiens). In words: TR-FRET. Particulars: bridging read-out only, end type not stated; 50 mM HEPES-NaOH pH 7.5, 80 mM NaCl, 5 mM MgCl2, 1 mM DTT, 1 mM ATP, 50 ug/ml BSA; anisotropy 25 C (25 nM DNA), TR-FRET room temperature, pull-down 4 C; recombinant protein.
Data set [6] relates to T4, ΔOBD LigIII (Homo sapiens).
T4 sequence (looked up): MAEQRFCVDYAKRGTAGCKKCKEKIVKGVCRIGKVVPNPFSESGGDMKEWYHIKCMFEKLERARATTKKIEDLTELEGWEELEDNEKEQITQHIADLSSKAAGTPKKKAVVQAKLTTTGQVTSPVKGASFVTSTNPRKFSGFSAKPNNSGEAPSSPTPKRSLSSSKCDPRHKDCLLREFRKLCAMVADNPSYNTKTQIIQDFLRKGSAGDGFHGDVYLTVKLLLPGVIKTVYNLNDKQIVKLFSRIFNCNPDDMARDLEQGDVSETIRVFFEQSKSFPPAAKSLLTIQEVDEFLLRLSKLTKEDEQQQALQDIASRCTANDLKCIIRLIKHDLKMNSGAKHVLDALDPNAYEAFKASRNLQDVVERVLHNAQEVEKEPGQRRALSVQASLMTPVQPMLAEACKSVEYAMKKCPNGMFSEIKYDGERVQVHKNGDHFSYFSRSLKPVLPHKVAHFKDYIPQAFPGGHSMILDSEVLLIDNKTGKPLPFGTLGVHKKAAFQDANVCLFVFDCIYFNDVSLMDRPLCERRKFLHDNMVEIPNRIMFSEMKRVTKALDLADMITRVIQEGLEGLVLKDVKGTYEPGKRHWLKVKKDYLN
Kind of data set: TR-FRET. Particulars: bridging read-out only, end type not stated; 50 mM HEPES-NaOH pH 7.5, 80 mM NaCl, 5 mM MgCl2, 1 mM DTT, 1 mM ATP, 50 ug/ml BSA; anisotropy 25 C (25 nM DNA), TR-FRET room temperature, pull-down 4 C; recombinant protein; residues 1-595; protein details: C-terminal His (pET28a).

For data set [7], the system named is T1, DNA ligase III beta (LigIII) (Homo sapiens). Kind of data set: TR-FRET. Particulars: 50 mM HEPES-NaOH pH 7.5, 80 mM NaCl, 5 mM MgCl2, 1 mM DTT, 1 mM ATP, 50 ug/ml BSA, anisotropy 25 C (25 nM DNA), TR-FRET room temperature, pull-down 4 C, recombinant protein.
Data set [8] concerns T2, ΔZnF LigIII (Homo sapiens). In words: fluorescence anisotropy. Conditions: Kapp, 5 mM Mg2+, 1 mM ATP, protein assignment from order of extracted table, 50 mM HEPES-NaOH pH 7.5, 80 mM NaCl, 5 mM MgCl2, 1 mM DTT, 50 ug/ml BSA, anisotropy 25 C (25 nM DNA), TR-FRET room temperature, pull-down 4 C, recombinant protein, residues 170-749, protein details: N-terminal His (pET28a), label: 5'-FITC on strand 1.

The subject of data set [9] is T4, ΔOBD LigIII (Homo sapiens). Kind of data set: fluorescence anisotropy. Conditions: Kapp, 5 mM Mg2+, 1 mM ATP, protein assignment from order of extracted table, 50 mM HEPES-NaOH pH 7.5, 80 mM NaCl, 5 mM MgCl2, 1 mM DTT, 50 ug/ml BSA, anisotropy 25 C (25 nM DNA), TR-FRET room temperature, pull-down 4 C, recombinant protein, residues 1-595, protein details: C-terminal His (pET28a), label: 5'-FITC on strand 1. On the technique in general: In fluorescence polarisation assays a small probe gives low polarisation when free and higher when bound to something large.

Turning to “AGTGAATTCGAGCTCG / AATCGAGCTCGCAATTCACT / CATGATTACGG / CCGTAATCATG [mismatched pair: biotin overhang + FITC blunt]”, in [1] (bridging read-out only, data not shown, label: 5'-biotin on S1, 5'-FITC on S3, letters put together from the description), the binding result was “no binding”.
For “AGTGAATTCGAGCTCG / AATCGAGCTCGCAATTCACT / CATGATTACGG / ATTCCGTAATCATG [bridged pair, complementary 3-nt overhangs]”, the binding result in [2] is “no binding”; in data set [1] (bridging, biotin DNA on beads), “binds”; in [3] (ATP added back, bridging restored), “binds”; in [3] (no ATP, bridging read-out only), “no binding”; in data set [4], “no binding”; in data set [5], “no binding”. In addition, the binding result in data set [6] was “no binding”; in data set [7] (5 mM EDTA added, bridging read-out only, end type not stated, residues 1-862, protein details: N-terminal His (pQE32)) it was “no binding”; in [7] (DNA bridging, 5 mM Mg2+, residues 1-862, protein details: N-terminal His (pQE32)) it was “binds”.
By pKd is commonly meant −log10 of the Kd, conventionally taken in molar units. As for “CATGATTACGG / ATTCCGTAATCATG [FITC duplex with 3-nt 5' overhang]”, the results for the pKd in data set [8] and in data set [9] were 6.78 and 6.51, respectively.
